Data taken from patent US20250122271A1, “ANTI-DKK1 ANTIBODY, PHARMACEUTICAL COMPOSITION THEREOF, AND USE THEREOF” (SHANGHAI JUNSHI BIOSCIENCES CO., LTD., priority 2022, published 2025).
Results are given in words; binding and its absence hold for the method and conditions named. Some binding calls cover weakened binding; strength is not graded here.

Biological target: T1, human DKK1 antigen (Sino Biological, 10170-H08H) (human) (UniProt O94907)
T1 sequence (looked up): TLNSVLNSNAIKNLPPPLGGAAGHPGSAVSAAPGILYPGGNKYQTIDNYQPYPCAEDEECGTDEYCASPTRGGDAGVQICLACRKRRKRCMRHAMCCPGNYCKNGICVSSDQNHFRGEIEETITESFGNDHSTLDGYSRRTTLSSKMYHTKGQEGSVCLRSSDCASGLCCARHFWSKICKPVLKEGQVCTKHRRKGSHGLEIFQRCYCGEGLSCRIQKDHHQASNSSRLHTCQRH
Test: competitive ELISA against LRP6 for DKK1

B1: chi-22 (antibody, V domains shown)
VH: QVTLKESGPGILQPSQTLSLTCSFSGFSLSTSGMGVGWIRQPSGKGLEWLAHIWWDDVKRYNPALKSRLTISKDTSSSQVFLKIASVDTTDTASYYCSRIARSPTGFAYWGQGTL
VL: QIVLTQSPVIMSASPGEKVTMTCSASSSVSYMYWYQQKPGSSPRLLIYDTSNLASGVPVRFSGSGSGTSYSLTISRMEAEDAATYYCQQWSSYPPALTFGAGTKLELK
  binding: binds
